Source: the supplement of paper PMC7666118
The list shows a part of the results.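 The calls were made as follows: active = dose-dependent thermal stabilisation significant by F-test of dose-response against flat model at 10% FDR; inactive = not significant.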

Amino acid sequences for entries named in this document (tags omitted). A change or cut given only in a name is not applied to a line headed by its entry.
UniProt Q9UL46, whole entry: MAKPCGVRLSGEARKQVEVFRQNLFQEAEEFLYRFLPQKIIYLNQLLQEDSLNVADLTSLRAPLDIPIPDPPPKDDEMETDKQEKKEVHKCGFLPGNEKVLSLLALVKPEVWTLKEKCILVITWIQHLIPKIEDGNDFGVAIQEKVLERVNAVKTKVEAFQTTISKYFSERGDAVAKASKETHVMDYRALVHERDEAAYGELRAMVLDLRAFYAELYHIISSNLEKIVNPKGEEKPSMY
UniProt Q15262: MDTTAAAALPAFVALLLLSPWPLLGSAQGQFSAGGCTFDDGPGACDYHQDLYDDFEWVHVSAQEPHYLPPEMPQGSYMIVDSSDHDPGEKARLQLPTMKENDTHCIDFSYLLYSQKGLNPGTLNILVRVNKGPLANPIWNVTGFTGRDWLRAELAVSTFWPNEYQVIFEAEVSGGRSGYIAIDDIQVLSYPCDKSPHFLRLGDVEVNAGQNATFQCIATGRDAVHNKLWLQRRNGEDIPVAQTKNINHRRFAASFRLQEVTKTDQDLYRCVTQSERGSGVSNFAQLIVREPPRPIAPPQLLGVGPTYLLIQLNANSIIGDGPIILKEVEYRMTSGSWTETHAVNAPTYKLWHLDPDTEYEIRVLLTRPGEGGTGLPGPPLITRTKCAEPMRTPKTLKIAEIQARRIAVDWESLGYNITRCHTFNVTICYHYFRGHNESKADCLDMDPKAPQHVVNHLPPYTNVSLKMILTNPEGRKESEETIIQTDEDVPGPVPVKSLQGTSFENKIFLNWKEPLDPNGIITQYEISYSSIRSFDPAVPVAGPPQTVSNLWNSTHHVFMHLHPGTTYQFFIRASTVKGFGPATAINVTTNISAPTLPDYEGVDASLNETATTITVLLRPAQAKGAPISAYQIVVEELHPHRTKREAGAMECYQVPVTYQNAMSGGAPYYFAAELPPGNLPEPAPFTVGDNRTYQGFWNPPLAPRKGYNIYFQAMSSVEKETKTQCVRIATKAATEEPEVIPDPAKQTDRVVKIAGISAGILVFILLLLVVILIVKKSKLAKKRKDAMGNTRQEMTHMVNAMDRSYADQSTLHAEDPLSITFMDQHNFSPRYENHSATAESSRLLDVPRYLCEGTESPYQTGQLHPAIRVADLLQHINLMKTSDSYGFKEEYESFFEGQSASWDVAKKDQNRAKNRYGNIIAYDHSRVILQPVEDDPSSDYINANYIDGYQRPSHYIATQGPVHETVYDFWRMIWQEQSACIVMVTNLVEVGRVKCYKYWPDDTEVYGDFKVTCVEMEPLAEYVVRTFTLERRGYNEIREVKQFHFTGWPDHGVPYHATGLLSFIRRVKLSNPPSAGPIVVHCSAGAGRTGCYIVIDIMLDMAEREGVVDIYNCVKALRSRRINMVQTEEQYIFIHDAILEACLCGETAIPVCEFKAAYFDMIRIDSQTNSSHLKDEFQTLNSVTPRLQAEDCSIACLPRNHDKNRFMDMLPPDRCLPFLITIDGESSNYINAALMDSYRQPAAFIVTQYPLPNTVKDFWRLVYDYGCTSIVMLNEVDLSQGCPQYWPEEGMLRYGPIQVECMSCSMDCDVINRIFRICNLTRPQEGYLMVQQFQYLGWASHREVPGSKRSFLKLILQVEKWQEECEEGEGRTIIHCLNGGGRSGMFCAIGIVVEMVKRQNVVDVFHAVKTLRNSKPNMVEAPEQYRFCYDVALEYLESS
UniProt Q96B01: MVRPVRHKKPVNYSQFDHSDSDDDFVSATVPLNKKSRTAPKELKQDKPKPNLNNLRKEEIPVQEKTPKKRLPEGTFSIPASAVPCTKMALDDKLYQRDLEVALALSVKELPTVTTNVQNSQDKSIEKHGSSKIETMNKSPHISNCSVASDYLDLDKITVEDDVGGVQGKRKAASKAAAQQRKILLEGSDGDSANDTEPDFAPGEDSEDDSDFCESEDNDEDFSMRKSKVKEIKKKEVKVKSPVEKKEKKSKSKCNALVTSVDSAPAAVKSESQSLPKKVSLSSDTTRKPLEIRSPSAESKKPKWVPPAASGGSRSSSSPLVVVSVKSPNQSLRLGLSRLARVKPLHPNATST
UniProt Q05397, whole entry, looked up: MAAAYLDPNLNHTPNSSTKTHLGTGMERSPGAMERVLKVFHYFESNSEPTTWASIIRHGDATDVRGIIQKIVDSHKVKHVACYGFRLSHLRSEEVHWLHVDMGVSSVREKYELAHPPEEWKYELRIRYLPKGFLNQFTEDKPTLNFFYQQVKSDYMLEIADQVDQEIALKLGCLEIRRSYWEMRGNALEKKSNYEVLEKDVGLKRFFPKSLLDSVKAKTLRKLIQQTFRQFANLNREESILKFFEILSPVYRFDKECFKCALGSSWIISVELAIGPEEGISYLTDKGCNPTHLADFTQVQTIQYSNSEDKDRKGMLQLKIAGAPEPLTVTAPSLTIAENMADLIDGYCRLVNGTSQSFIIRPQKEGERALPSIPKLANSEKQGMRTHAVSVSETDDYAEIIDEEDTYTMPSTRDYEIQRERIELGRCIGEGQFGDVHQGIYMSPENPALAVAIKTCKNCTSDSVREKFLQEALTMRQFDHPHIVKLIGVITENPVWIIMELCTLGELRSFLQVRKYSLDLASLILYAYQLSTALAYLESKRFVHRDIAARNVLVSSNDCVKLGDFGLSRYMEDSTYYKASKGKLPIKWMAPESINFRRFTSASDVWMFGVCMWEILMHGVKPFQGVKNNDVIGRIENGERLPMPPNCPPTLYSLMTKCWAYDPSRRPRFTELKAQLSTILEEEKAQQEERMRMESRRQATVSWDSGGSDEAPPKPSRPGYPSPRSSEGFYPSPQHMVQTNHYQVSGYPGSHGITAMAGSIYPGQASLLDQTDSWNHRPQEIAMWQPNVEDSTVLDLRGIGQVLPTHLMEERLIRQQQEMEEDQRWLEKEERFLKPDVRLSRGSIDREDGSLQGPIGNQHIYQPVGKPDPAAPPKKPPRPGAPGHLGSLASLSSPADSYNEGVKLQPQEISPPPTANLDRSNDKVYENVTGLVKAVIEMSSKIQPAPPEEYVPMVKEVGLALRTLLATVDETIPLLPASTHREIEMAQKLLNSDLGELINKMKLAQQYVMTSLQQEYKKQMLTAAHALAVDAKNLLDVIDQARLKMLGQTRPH
UniProt Q99708: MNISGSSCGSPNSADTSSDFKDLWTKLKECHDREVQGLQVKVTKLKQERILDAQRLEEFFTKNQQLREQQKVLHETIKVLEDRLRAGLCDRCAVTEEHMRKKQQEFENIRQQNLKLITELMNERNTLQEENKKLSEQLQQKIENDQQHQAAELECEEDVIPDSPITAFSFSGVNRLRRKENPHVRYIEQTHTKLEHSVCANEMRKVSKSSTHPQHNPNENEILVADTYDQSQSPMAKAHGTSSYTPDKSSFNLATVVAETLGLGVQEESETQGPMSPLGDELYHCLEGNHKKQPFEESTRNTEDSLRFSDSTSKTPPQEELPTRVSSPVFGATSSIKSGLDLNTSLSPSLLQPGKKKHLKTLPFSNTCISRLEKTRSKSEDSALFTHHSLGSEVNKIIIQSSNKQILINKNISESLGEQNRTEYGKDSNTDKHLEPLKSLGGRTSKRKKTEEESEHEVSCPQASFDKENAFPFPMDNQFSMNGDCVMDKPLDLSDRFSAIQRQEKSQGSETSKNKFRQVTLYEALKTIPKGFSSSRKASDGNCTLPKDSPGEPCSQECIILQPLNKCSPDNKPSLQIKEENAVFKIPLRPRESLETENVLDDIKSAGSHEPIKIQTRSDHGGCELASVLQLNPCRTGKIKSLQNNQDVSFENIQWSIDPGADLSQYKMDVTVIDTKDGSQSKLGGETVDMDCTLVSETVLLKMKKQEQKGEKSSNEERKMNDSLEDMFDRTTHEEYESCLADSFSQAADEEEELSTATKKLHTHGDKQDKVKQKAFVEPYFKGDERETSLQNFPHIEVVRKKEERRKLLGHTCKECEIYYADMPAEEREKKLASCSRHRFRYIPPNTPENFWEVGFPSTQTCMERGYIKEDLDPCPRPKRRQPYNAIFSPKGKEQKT
UniProt Q8WWW0: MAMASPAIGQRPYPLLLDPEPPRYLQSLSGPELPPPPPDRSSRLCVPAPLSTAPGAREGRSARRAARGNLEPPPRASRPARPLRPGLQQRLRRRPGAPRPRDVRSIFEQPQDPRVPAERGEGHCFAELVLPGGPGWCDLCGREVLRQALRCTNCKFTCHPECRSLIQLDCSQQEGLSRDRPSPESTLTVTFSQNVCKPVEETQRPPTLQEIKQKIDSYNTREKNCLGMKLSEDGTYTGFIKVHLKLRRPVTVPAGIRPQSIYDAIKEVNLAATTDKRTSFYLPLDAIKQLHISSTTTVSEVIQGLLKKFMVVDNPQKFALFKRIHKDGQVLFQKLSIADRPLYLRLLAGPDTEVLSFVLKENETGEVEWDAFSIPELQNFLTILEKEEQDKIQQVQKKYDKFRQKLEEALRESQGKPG
UniProt Q9ULC3: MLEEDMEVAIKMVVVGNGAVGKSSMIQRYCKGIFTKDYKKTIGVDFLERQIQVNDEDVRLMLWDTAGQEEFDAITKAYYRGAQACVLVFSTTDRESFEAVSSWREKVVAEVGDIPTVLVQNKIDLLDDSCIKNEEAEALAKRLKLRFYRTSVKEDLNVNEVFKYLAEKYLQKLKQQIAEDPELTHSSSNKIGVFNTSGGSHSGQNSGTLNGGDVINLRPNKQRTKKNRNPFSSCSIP
UniProt Q9Y606: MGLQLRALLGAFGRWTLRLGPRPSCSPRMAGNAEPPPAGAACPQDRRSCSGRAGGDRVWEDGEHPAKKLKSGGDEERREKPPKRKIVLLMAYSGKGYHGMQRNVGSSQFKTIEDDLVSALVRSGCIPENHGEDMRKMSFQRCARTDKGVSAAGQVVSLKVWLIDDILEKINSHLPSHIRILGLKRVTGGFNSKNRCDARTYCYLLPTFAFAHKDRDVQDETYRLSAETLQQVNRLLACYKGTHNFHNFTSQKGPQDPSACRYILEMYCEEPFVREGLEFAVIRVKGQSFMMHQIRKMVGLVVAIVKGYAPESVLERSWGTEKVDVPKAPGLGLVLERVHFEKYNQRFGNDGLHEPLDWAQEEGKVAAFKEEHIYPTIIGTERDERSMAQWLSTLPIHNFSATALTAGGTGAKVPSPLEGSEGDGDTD
UniProt Q5VTL8: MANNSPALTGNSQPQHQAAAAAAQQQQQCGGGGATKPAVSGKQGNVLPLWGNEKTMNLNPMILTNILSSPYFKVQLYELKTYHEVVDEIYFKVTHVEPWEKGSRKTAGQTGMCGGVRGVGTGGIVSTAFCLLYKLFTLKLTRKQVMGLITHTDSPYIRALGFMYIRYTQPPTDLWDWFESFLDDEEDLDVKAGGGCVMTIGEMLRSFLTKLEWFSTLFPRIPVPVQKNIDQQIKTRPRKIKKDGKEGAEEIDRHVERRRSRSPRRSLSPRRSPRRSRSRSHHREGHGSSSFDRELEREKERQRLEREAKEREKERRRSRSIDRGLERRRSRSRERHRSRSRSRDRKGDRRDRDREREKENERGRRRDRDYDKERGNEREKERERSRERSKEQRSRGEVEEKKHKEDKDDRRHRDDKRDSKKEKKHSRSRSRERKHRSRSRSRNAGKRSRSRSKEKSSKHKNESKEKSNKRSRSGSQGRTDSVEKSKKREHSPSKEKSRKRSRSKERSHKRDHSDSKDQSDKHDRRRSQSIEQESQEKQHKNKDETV
UniProt P10644, whole entry: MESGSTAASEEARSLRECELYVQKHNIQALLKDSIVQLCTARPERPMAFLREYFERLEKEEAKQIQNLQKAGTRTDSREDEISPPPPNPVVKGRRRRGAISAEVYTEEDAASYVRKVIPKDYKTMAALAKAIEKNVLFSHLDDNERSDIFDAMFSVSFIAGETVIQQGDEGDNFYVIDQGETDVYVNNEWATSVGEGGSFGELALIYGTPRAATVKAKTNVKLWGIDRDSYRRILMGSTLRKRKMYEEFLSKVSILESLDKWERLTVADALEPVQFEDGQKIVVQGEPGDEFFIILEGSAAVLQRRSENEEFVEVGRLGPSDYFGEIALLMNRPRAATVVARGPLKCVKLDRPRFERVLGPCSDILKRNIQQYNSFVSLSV
UniProt P26599: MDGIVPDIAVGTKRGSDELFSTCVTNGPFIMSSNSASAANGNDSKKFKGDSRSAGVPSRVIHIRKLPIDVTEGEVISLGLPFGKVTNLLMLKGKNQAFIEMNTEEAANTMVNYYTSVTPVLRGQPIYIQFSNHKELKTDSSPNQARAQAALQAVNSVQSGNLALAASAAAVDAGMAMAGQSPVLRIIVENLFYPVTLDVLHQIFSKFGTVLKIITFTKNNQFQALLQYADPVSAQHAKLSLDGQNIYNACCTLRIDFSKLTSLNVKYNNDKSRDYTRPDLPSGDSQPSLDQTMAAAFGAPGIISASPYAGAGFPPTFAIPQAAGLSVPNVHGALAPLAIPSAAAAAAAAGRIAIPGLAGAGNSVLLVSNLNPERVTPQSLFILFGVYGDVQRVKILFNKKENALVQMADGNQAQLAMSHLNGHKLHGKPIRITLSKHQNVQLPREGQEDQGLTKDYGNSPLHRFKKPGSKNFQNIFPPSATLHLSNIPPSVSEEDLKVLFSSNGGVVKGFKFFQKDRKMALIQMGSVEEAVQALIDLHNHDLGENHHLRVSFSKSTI

compound: Nc1nc2c(ncn2[C@@H]2O[C@H](COP(=O)(O)OP(=O)(O)OP(=O)(O)O)[C@@H](O)[C@H]2O)c(=O)[nH]1; experiment: dose-dependent thermal stabilisation call (2D-TPP, DLPTP, 10% FDR) (binary (1 = stabilised)); higher = stabilised by the compound; conditions: system: Jurkat gel-filtered lysate; concentration range 1-500 µM

dose-dependent thermal stabilisation call, inactive:
PSME2 (UniProt Q9UL46) 0
RANGRF (UniProt Q9HD47) 0
RBM38 (UniProt Q9H0Z9) 0
PUS7 (UniProt Q96PZ0) 0
RARS (UniProt P54136) 0
PSMD3 (UniProt O43242) 0
PSMB3 (UniProt P49720) 0
PTPRK (UniProt Q15262) 0
RBM10 (UniProt P98175) 0
PTPA (UniProt Q15257) 0
PSMA6 (UniProt P60900) 0
PRRC1 (UniProt Q96M27) 0
PTGES2 (UniProt Q9H7Z7) 0
RABGGTB (UniProt P53611) 0
PSMC6 (UniProt P62333) 0
RAD51AP1 (UniProt Q96B01) 0
RBM8A (UniProt Q9Y5S9) 0
RAVER1 (UniProt Q8IY67) 0
PREP (UniProt P48147) 0
PRKDC (UniProt P78527) 0
RAB9A (UniProt P51151) 0
PSMA1 (UniProt P25786) 0
PTK2 (UniProt Q05397) 0
PRKAR2A (UniProt P13861) 0
UniProt Q6ZSR9 0
RBBP9 (UniProt O75884) 0
RBBP8 (UniProt Q99708) 0

2 entries drawn at random from the list so far, as already listed:
dose-dependent thermal stabilisation call, inactive:
PTPRK (UniProt Q15262) 0
RBM38 (UniProt Q9H0Z9) 0

Following part:

dose-dependent thermal stabilisation call, active:
RASSF5 (UniProt Q8WWW0) 1
RAB23 (UniProt Q9ULC3) 1
RAB1A (UniProt P62820) 1
PUS1 (UniProt Q9Y606) 1
PRPF38B (UniProt Q5VTL8) 1
RAB21 (UniProt Q9UL25) 1
PRKAR1A (UniProt P10644) 1
RAD9A (UniProt Q99638) 1
PTBP1 (UniProt P26599) 1
